Test results published in PMC6773438.

Tests used:
[1] = biological target: T1, He Dsup (Hypsibius exemplaris (strain Z151)) (UniProt A0A1W0XB17); assay: EMSA; conditions: EMSA: 60 nM mononucleosomes, 25 mM Hepes-K+ pH 7.6, 0.1 mM EDTA, 10% glycerol, 100 mM KCl, 100 ng BSA in 15 uL, 30 C 30 min; H1 assays plus 0.05% NP-40 and 2 mM MgCl2; recombinant protein; residues 1-328; protein details: N-terminal His6, C-terminal FLAG
T1 sequence (looked up): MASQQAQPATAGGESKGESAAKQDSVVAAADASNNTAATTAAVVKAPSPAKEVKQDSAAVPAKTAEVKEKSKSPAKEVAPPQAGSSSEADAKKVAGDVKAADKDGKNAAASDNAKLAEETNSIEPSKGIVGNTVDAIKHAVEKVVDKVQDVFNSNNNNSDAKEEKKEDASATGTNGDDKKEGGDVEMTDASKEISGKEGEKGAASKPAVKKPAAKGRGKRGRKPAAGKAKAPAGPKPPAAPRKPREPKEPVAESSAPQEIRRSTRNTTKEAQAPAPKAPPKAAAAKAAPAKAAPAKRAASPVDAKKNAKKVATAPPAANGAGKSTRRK

[2] = biological target: T2, Rv Dsup (Ramazzottius varieornatus (strain YOKOZUNA-1)) (UniProt P0DOW4); assay: EMSA; conditions: no distinct shifted band; EMSA: 60 nM mononucleosomes, 25 mM Hepes-K+ pH 7.6, 0.1 mM EDTA, 10% glycerol, 100 mM KCl, 100 ng BSA in 15 uL, 30 C 30 min; H1 assays plus 0.05% NP-40 and 2 mM MgCl2; recombinant protein; residues 1-445; protein details: N-terminal His6, C-terminal FLAG
T2 sequence (looked up): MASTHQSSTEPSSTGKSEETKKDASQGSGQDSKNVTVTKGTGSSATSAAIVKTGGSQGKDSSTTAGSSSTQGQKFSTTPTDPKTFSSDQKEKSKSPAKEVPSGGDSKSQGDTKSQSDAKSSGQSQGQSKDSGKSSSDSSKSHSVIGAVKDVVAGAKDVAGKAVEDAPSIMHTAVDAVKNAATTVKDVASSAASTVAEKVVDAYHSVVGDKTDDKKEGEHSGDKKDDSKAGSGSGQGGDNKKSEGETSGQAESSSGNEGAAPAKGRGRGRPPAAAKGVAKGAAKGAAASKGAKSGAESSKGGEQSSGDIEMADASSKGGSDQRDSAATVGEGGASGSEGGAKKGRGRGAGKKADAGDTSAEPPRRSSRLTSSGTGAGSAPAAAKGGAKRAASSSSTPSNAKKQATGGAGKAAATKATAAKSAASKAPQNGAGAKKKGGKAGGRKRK

## GCTTGTTTTCCTGCCTGGGGGAAAAGACCCTGGCATGGGGAGGAGCTGGGCCCCCCCCAGAAGGCAGCACAAGGGGAGGAAAAGTCAGCCTTGTGCTCGCCTACGGCCATACCACCCTGAAAGTGCCCGATATCGTCTGATCTCGGA (double strand) [X. borealis 5S rDNA 147 bp free DNA]
[1]
  binding result: binds more weakly
[2]
  binding result: binds more weakly

Weaker means in comparison with the reference protein, sequence or condition of that experiment. Protein sequences can lack the tags named with them.
